In patent publication US9127233B2, “Device and method for solubilizing, separating, removing and reacting carboxylic acids in oils, fats, aqueous or organic solutions by means of micro-or nanoemulsification” (priority 2010, dated 2015):

How the values were obtained:
[1] = Estimation of the interaction between oleic acid and the test substance; assay type: physicochemical
[2] = Dynamic laser light scattering (DLS) of oleic acid micro-/nanoemulsions; assay type: physicochemical

CN(C)C(=N)NC(=N)N.Cl [1,1-Dimethylbiguanide hydrochloride, reference compound]
Interaction with Oleic Acid [1]: X, E
Mean Size by Intensity ([2]; DLS, emulsion with oleic acid): 106 nm
Part ([2]; percentage of the peak in the sample): 89.4%
